Measurements as given in the supplement of paper PMC10849652.
This is one part of the list.

The chains behind the UniProt entries cited, without tags or fusion partners. Where a name states a change or a piece, a line headed by the entry shows the natural chain unless it says otherwise.
UniProt P22102: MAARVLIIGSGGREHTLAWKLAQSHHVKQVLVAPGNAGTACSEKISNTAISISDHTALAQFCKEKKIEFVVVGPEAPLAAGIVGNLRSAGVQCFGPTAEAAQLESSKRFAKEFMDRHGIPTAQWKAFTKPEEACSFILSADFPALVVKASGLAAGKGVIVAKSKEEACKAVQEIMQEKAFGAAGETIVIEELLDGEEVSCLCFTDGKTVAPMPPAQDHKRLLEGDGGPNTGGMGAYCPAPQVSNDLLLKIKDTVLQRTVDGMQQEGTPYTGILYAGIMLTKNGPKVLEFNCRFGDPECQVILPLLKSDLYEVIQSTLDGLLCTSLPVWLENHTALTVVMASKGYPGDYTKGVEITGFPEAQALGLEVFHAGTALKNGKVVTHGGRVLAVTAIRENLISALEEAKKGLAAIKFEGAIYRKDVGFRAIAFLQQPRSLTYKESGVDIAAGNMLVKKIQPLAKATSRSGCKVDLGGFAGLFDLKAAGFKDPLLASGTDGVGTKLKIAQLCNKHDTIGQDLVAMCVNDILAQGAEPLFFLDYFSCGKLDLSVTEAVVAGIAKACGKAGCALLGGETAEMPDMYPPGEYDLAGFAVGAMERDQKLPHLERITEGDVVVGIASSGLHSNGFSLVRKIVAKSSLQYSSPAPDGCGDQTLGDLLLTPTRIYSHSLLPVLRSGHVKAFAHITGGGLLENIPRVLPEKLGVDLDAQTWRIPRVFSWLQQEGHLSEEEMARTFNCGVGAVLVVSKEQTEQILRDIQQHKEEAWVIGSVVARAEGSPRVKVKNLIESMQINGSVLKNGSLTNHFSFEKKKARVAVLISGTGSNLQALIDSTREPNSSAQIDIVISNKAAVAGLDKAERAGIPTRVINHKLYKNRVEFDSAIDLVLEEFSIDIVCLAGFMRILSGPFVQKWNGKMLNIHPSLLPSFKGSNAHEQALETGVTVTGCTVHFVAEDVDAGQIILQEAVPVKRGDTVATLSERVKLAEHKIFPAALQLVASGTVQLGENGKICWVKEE
UniProt Q8IY81: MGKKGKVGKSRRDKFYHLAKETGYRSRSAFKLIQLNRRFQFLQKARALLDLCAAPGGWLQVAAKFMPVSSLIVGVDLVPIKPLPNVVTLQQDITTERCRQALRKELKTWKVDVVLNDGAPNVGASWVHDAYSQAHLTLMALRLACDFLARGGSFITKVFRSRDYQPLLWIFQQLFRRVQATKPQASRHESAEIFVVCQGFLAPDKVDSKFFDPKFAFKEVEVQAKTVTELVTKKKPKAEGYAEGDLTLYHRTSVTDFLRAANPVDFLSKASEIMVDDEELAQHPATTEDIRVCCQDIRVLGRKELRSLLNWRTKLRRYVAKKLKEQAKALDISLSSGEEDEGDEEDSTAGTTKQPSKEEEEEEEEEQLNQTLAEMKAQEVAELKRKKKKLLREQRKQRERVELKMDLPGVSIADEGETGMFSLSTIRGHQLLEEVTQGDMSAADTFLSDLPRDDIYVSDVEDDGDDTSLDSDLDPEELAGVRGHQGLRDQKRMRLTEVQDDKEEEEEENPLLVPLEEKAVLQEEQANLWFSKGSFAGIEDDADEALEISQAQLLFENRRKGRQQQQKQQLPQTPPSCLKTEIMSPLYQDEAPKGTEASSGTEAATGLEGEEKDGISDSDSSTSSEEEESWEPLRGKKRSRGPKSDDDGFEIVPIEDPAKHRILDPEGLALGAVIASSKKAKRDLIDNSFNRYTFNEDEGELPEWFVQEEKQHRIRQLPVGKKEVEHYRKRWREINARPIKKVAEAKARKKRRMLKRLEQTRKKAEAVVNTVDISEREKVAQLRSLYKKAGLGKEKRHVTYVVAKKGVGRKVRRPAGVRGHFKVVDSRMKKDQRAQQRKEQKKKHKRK
UniProt Q10472: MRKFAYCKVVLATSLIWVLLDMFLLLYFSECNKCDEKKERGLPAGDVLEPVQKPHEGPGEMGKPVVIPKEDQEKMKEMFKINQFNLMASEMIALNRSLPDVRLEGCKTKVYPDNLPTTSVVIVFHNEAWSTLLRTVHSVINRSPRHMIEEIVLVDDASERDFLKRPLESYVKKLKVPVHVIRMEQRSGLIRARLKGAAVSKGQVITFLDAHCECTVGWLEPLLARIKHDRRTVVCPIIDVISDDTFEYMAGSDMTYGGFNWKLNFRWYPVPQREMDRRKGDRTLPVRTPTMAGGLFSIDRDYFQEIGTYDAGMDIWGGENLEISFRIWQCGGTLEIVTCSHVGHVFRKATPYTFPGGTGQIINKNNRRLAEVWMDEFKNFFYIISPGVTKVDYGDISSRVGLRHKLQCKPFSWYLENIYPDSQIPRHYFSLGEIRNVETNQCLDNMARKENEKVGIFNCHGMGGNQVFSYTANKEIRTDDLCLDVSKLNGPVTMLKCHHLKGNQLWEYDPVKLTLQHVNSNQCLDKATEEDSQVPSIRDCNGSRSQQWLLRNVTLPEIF
UniProt O14976: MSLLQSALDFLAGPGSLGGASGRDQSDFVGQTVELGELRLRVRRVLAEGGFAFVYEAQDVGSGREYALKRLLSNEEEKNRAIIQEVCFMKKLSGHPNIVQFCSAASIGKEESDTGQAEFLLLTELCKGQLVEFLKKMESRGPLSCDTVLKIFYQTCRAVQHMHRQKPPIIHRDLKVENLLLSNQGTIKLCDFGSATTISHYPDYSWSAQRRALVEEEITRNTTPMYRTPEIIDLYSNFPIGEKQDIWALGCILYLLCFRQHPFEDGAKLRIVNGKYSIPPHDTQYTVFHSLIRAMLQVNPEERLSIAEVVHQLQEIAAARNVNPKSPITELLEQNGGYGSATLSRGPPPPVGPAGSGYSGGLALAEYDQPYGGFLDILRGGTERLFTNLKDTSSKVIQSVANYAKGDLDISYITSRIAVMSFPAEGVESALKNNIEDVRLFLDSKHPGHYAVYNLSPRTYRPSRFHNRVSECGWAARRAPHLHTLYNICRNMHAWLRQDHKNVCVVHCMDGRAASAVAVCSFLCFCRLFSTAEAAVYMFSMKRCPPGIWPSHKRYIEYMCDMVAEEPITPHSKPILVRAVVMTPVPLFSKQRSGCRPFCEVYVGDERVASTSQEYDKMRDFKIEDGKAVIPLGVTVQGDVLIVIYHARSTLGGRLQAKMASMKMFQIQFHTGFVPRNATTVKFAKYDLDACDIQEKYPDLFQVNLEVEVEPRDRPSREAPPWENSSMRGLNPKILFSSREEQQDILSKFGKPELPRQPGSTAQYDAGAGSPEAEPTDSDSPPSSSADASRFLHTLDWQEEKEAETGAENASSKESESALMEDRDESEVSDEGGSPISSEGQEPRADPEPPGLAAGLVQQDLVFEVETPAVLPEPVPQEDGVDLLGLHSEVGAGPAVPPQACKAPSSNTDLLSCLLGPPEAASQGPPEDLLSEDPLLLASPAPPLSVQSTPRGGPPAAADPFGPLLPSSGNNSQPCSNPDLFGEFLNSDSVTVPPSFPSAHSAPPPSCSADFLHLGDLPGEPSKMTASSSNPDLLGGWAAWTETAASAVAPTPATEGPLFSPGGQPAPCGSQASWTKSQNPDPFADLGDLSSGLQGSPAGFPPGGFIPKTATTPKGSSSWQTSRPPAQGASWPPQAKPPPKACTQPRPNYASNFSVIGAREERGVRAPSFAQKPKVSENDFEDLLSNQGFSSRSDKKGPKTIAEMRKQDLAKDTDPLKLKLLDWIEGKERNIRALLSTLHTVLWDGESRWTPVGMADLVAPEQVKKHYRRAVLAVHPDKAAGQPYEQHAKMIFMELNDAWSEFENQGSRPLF
UniProt Q8N9F7: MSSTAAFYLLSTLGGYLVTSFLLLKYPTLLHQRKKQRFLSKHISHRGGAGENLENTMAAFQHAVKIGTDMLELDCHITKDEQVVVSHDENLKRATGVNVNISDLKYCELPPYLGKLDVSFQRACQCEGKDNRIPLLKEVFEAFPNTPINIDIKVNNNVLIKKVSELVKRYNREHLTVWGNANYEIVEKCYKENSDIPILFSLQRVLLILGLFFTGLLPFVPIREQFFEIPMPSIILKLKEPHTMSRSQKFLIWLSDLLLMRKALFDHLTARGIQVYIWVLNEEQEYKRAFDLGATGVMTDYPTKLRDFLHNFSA
UniProt O14893: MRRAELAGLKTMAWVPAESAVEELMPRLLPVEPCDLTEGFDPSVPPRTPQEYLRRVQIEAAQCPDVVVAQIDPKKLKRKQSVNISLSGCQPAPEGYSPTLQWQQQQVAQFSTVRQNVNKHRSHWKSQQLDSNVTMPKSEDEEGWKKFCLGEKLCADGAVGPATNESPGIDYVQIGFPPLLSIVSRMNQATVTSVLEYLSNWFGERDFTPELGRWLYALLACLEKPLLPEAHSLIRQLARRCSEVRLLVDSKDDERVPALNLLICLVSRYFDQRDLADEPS
UniProt Q9BQS8: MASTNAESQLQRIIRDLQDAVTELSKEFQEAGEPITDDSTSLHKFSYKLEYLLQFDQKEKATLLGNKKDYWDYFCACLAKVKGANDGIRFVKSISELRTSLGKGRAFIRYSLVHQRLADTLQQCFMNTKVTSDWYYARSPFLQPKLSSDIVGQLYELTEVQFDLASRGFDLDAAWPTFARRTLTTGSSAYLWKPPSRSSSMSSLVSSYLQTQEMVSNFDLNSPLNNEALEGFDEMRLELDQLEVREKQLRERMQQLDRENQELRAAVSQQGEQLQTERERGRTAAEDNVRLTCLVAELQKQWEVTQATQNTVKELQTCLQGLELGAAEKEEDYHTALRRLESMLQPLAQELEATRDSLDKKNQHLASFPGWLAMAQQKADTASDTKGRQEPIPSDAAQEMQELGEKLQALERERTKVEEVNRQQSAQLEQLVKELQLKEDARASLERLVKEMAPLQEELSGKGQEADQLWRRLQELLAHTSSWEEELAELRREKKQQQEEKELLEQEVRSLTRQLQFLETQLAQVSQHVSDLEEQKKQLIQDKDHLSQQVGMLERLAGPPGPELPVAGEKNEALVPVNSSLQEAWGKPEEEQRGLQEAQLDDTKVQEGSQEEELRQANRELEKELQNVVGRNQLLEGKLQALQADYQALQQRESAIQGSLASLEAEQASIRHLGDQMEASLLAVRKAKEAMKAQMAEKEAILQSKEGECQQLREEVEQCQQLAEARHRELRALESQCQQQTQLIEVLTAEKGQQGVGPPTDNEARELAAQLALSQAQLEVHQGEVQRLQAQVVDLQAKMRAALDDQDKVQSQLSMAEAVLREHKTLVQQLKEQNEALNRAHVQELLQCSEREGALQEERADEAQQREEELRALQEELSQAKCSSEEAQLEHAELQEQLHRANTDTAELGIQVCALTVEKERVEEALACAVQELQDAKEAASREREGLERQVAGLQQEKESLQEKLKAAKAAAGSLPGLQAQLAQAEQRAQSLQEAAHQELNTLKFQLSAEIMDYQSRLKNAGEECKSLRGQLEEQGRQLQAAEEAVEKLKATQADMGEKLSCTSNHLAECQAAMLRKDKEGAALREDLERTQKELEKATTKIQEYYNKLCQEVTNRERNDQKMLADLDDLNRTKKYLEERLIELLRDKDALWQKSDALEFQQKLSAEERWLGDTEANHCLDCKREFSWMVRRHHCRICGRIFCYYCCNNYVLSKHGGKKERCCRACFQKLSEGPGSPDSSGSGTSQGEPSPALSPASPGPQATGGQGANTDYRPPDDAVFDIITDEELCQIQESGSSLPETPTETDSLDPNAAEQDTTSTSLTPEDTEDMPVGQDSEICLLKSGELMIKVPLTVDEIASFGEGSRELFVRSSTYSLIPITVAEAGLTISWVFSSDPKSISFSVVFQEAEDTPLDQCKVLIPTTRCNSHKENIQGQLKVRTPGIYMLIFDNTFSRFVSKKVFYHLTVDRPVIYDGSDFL
UniProt Q10471: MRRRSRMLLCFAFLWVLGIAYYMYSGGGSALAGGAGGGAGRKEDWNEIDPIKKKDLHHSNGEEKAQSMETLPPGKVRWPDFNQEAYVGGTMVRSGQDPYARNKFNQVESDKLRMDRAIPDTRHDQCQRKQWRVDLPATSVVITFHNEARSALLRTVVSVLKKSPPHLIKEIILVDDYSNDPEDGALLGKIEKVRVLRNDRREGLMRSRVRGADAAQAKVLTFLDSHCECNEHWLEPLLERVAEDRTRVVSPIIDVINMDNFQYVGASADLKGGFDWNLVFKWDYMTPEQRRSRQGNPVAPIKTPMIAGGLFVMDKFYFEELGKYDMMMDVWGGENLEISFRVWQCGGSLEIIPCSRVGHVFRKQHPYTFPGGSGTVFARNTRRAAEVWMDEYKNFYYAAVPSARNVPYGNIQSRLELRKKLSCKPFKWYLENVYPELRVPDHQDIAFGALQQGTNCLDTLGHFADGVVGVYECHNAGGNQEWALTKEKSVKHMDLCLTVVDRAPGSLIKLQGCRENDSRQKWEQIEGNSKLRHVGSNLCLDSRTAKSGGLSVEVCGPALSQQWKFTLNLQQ

Legend:
Assay in all cases: log2 fold change, soluble protein after heating vs DMSO (PISA); higher = thermal stabilisation; K562 lysate, 10 uM; active = over 0.2 and 3.5 SD of the protein, either way, in both replicates (recomputed)
[1] = compound: CN1CC[C@H](c2c(O)cc(O)c3c(=O)cc(-c4ccccc4Cl)oc23)[C@H](O)C1 [alvocidib]
In short: (§1)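 To prepare the extract, K562 pellets were dounce-homogenised in PBS pH 7.4 with 1 mM MgCl2, giving crude material at 1 mg/mL protein. This was treated with 10 μM compound for 30 min, then heated in aliquots for 3 min over 48°C-58°C before pooling and addition of NP-40 to 0.5% at 4°C. Centrifugation at 21,000xg for 90 min left soluble protein in the supernatant, which TMTpro 16plex LC-MS/MS quantified with equalised channel sums. Results are log-two fold changes in thermal stability compared with solvent controls, from duplicates.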

[2] = compound: CN1CCc2c(c3ccccc3n2Cc2ccc(C(=O)NO)cc2)C1 [Tubastatin A]
In short: as §1

[3] = compound: CNC(=O)C1=CC=CC=C1NC2=NC(=NC=C2Cl)NC3=C(C=C(C=C3)N4CCOCC4)OC
In short: as §1

[4] = compound: CNC(=O)c1ccc(Nc2ncc(C(F)(F)F)c(NCc3nccnc3N(C)S(C)(=O)=O)n2)cc1 [defactinib]
In short: as §1

[5] = compound: CNc1nc(-c2ccc3c(N)n[nH]c3c2)cc(N2C[C@@H](C(=O)NC3CCCCC3)CC[C@H]2C)n1
In short: as §1

[6] = compound: COC(=O)N[C@@H](C)CNc1nccc(-c2cn(C(C)C)nc2-c2cc(Cl)cc(NS(C)(=O)=O)c2F)n1 [encorafenib]
In short: as §1

[7] = compound: COC(=O)[C@H](CCSC)NC(=O)C1=C(C=C(C=C1)NC[C@H](CS)N)C2=CC=CC=C2
In short: as §1

[8] = compound: COc1cc(Nc2ncc3c(n2)-c2ccc(Cl)cc2C(c2c(F)cccc2OC)=NC3)ccc1C(=O)O [alisertib]
In short: as §1

[9] = compound: COc1cc2nc(-c3cc(F)ccc3O)nc(N[C@@H]3CNC[C@H]3C(C)(C)O)c2cc1OC
In short: as §1

[10] = compound: COc1cc2ncnc(Nc3ccc(F)c(Cl)c3)c2cc1OCCCN1CCOCC1 [gefitinib]
In short: as §1

[11] = compound: CS(=O)(=O)CCNCc1ccc(-c2ccc3ncnc(Nc4ccc(OCc5cccc(F)c5)c(Cl)c4)c3c2)o1 [lapatinib]
In short: as §1

[12] = compound: CS(=O)(=O)N1CCN(Cc2cc3nc(-c4cccc5[nH]ncc45)nc(N4CCOCC4)c3s2)CC1 [pictilisib]
In short: as §1

[13] = compound: C[C@@H](Oc1cc(-c2cnn(C3CCNCC3)c2)cnc1N)c1c(Cl)ccc(F)c1Cl [crizotinib]
In short: as §1

[14] = compound: C[C@H](C1=CC=C(C=C1)C(=O)NC2=C3C=CNC3=NC=C2)N
In short: as §1

[15] = compound: C[C@H](Nc1ncnc2nc[nH]c12)c1cc2cccc(Cl)c2c(=O)n1-c1ccccc1 [duvelisib]
In short: as §1

[16] = compound: Cc1cc(Nc2cc(CN3CCOCC3)c3nc(C)c(Cc4ccc(Cl)cc4F)n3n2)n[nH]1 [gandotinib]
In short: as §1

[17] = compound: Cc1cc(Nc2cc(N3CCN(C)CC3)nc(Sc3ccc(NC(=O)C4CC4)cc3)n2)n[nH]1 [tozasertib]
In short: as §1

[18] = compound: Cc1ccc(-n2nc(C(C)(C)C)cc2NC(=O)Nc2ccc(OCCN3CCOCC3)c3ccccc23)cc1 [doramapimod]
In short: as §1

[19] = compound: Cc1ccc(NC(=O)c2ccc(CN3CC[C@H](N(C)C)C3)c(C(F)(F)F)c2)cc1Nc1nccc(-c2cncnc2)n1 [bafetinib]
In short: as §1

[20] = compound: Cc1cccc(CC(=O)N2CCc3c2ccc(-c2cn(C)c4ncnc(N)c24)c3F)n1
In short: as §1

Measured: log2 fold change

GBF1 (UniProt Q92538)
inactive: [1] 0 | [2] -0.041 | [3] 0.032 | [4] 0.007 | [5] 0.004 | [6] 0.036 | [7] -0.031 | [8] 0.002 | [9] -0.008 | [10] -0.03 | [11] -0.015 | [12] -0.023 | [13] -0.064 | [14] -0.026 | [15] -0.002 | [16] -0.108 | [17] 0.014 | [18] -0.006 | [19] -0.043 | [20] 0.049

FUBP3 (UniProt Q96I24)
inactive: [1] 0.008 | [2] -0.101 | [3] -0.033 | [4] 0.005 | [5] -0.05 | [6] 0.065 | [7] -0.146 | [8] 0.048 | [9] 0.001 | [10] -0.033 | [11] 0.02 | [12] -0.109 | [13] 0.005 | [14] 0.036 | [15] -0.022 | [16] 0.019 | [17] 0.033 | [18] -0.034 | [19] -0.055 | [20] -0.05

GART (UniProt P22102)
inactive: [1] 0.021 | [2] -0.073 | [3] 0.002 | [4] -0.024 | [5] 0.021 | [6] -0.027 | [7] 0.08 | [8] 0.008 | [9] -0.004 | [10] -0.017 | [11] -0.008 | [12] -0.024 | [13] -0.017 | [14] 0.062 | [15] -0.014 | [16] -0.052 | [17] -0.004 | [18] 0 | [19] -0.001 | [20] -0.026

FTSJ3 (UniProt Q8IY81)
inactive: [1] 0.031 | [2] -0.073 | [3] -0.018 | [4] 0.026 | [5] 0.007 | [6] -0.028 | [7] 0.031 | [8] 0.005 | [9] -0.036 | [10] 0.004 | [11] 0.013 | [12] 0.023 | [13] -0.037 | [14] -0.031 | [15] -0.01 | [16] -0.019 | [17] -0.019 | [18] -0.025 | [19] 0.013 | [20] 0.031

GAN (UniProt Q9H2C0)
inactive: [1] -0.03 | [2] -0.006 | [3] 0.012 | [4] -0.02 | [5] 0.013 | [6] 0 | [7] 0.004 | [8] 0.01 | [9] 0.02 | [10] 0.009 | [11] -0.003 | [12] -0.023 | [13] -0.002 | [14] -0.085 | [15] -0.009 | [16] 0.023 | [17] 0.017 | [18] 0.011 | [19] -0.059 | [20] 0.055

GALNT1 (UniProt Q10472)
inactive: [1] -0.018 | [2] 0.056 | [3] -0.067 | [4] 0.008 | [5] -0.03 | [6] 0.012 | [7] -0.031 | [8] 0.032 | [9] -0.014 | [10] -0.026 | [11] -0.022 | [12] -0.029 | [13] -0.041 | [14] -0.107 | [15] -0.025 | [16] -0.036 | [17] 0.008 | [18] 0.026 | [19] 0.018 | [20] 0.071

GAK (UniProt O14976)
inactive: [1] 0.31 | [2] -0.244 | [3] 0.672 | [4] 0.165 | [5] 0.239 | [6] 0.138 | [7] -0.17 | [8] -0.056 | [9] 0.183 | [10] 0.256 | [11] -0.136 | [12] 0.062 | [13] 0.023 | [14] 0.138 | [15] 0.011 | [16] 0.09 | [17] -0.058 | [18] -0.09 | [19] 0.394 | [20] -0.152

GFM2 (UniProt Q969S9)
inactive: [1] 0.012 | [2] -0.19 | [3] 0.069 | [4] 0.033 | [5] 0.014 | [6] -0.007 | [7] -0.007 | [8] 0.062 | [9] 0.033 | [10] 0.051 | [11] 0.07 | [12] 0.145 | [13] -0.007 | [14] 0.061 | [15] 0.03 | [16] -0.102 | [17] 0.015 | [18] -0.128 | [19] -0.071 | [20] 0.015

GEMIN4 (UniProt P57678)
inactive: [1] 0.017 | [2] -0.196 | [3] 0.078 | [4] -0.014 | [5] -0.072 | [6] 0.022 | [7] 0.013 | [8] -0.006 | [9] -0.005 | [10] 0.016 | [11] -0.031 | [12] -0.012 | [13] -0.065 | [14] -0.013 | [15] 0.004 | [16] -0.188 | [17] -0.009 | [18] 0.032 | [19] -0.038 | [20] 0.039

GDPD1 (UniProt Q8N9F7)
inactive: [1] 0 | [2] -0.023 | [3] 0.006 | [4] -0.03 | [5] 0.046 | [6] 0.059 | [8] -0.018 | [9] -0.027 | [10] -0.035 | [11] 0.03 | [12] -0.042 | [13] -0.157 | [14] 0.001 | [15] 0.049 | [16] 0.164 | [17] -0.029 | [18] 0.027 | [19] 0.022 | [20] 0.007
active: [7] -0.272

GANAB isoform 2 (UniProt Q14697)
inactive: [1] -0.013 | [2] 0.003 | [3] -0.009 | [4] -0.002 | [5] 0.004 | [6] 0.014 | [7] 0.013 | [8] -0.004 | [9] 0.015 | [10] 0.016 | [11] -0.007 | [12] -0.011 | [13] 0.01 | [14] -0.005 | [15] 0.022 | [16] -0.001 | [17] -0.017 | [18] -0.035 | [19] -0.011 | [20] 0.008

GEMIN2 (UniProt O14893)
inactive: [1] 0.034 | [2] -0.053 | [3] 0.001 | [4] -0.006 | [5] 0.013 | [6] 0.095 | [7] -0.009 | [8] -0.017 | [9] 0.009 | [10] -0.1 | [11] -0.025 | [12] -0.029 | [13] 0.059 | [14] -0.12 | [15] 0.075 | [16] 0 | [17] -0.021 | [18] -0.092 | [19] -0.053 | [20] 0.139

FYCO1 isoform 4 (UniProt Q9BQS8)
inactive: [1] -0.052 | [2] 0 | [3] -0.001 | [4] -0.002 | [5] -0.006 | [6] 0.033 | [7] 0.024 | [8] 0.018 | [9] 0.018 | [10] 0.016 | [11] -0.005 | [12] -0.018 | [13] -0.018 | [14] -0.114 | [15] 0.036 | [16] 0.229 | [17] 0.021 | [18] -0.009 | [19] -0.019 | [20] 0.176

GALNT2 (UniProt Q10471)
active: [16] 0.272
inactive: [1] -0.069 | [2] 0.073 | [3] -0.004 | [4] 0.008 | [5] -0.057 | [6] 0.048 | [7] -0.047 | [8] 0.028 | [9] -0.021 | [10] -0.021 | [11] -0.016 | [12] -0.039 | [13] 0.009 | [14] -0.074 | [15] -0.044 | [17] 0.047 | [18] -0.014 | [19] -0.002 | [20] 0.18

FRG1 (UniProt Q14331)
inactive: [1] 0.003 | [2] -0.011 | [3] 0.075 | [4] -0.011 | [5] 0.094 | [6] 0.011 | [7] 0.018 | [8] -0.013 | [9] -0.01 | [10] 0.079 | [11] -0.039 | [12] 0.002 | [13] 0.053 | [14] -0.009 | [15] -0.019 | [16] 0.014 | [17] 0.015 | [18] -0.041 | [19] -0.024 | [20] -0.022

GALM (UniProt Q96C23)
inactive: [1] -0.023 | [2] 0.015 | [3] -0.016 | [4] -0.024 | [5] 0.009 | [6] -0.019 | [7] 0.056 | [8] -0.028 | [9] -0.013 | [10] 0.009 | [11] 0.007 | [12] 0.012 | [13] -0.051 | [14] -0.01 | [15] 0.01 | [16] -0.006 | [17] 0.061 | [18] -0.006 | [19] 0.058 | [20] 0.037

Taken from the entries so far (2 entries):
FYCO1 isoform 4 (UniProt Q9BQS8)
inactive: [1] -0.052 | [2] 0 | [3] -0.001 | [4] -0.002 | [5] -0.006 | [6] 0.033 | [7] 0.024 | [8] 0.018 | [9] 0.018 | [10] 0.016 | [11] -0.005 | [12] -0.018 | [13] -0.018 | [14] -0.114 | [15] 0.036 | [16] 0.229 | [17] 0.021 | [18] -0.009 | [19] -0.019 | [20] 0.176

GALNT2 (UniProt Q10471)
active: [16] 0.272
inactive: [1] -0.069 | [2] 0.073 | [3] -0.004 | [4] 0.008 | [5] -0.057 | [6] 0.048 | [7] -0.047 | [8] 0.028 | [9] -0.021 | [10] -0.021 | [11] -0.016 | [12] -0.039 | [13] 0.009 | [14] -0.074 | [15] -0.044 | [17] 0.047 | [18] -0.014 | [19] -0.002 | [20] 0.18
